The text below walks through data of PubChem BioAssay AID493014 (National Center for Advancing Translational Sciences (NCATS), 2011).

The other results are listed elsewhere or left out. Further columns of the screen follow, without active or inactive calls. Compounds called inactive in the main read-out are mostly missing here. The note in brackets gives the kind of curve behind each potency; many fits are weak.

A short description of this test: qHTS Assay to Find Inhibitors of Chronic Active B-Cell Receptor Signaling. To be noted: ABC-DLBCL IkBa-CBG/CBR reporter, luminescence ratio (green luciferase fused to IkBa over red control in TMD8 lymphoma cells), 4 h. Summed up: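 TMD8 human ABC-DLBCL cells with doxycycline-inducible IκBα–green luciferase fusion and unfused red luciferase, in 0.5% FBS medium; compounds up to 46 uM, 4 h at 37C. Green/red luminescence ratio, filter-overlap corrected, fitted to concentration-response curves.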

[1] abbreviates: measured here: CBR red luminescence, cell number.
The mark [2] stands for this setting: measured here: IkBa-CBG green luminescence.

Consider `Cc1ccc(-c2nnc(Oc3ccc(NC(=O)c4ccccc4)cc3)c3ccccc23)cc1`, for which, under setting [1], the AC50 was 0.103 µM [rising, full curve, poor fit].
Take `CCOC(=O)C(=Cc1ccc(Br)cc1)C(=O)OCC`: the AC50 is, setting by setting: under setting [1], 5.01 µM [falling, full curve, poor fit]; under setting [2], 6.31 µM [rising, full curve, poor fit].
On to `CCCN(CCC)C(=O)Nc1ccc(F)cc1F`, for which the AC50 under setting [1] was 12.6 µM [rising, partial curve, poor fit].
Still for that read-out and setting: the result for `Cc1ccc(-c2cc(C(=O)OCC(=O)N(C)C3CCS(=O)(=O)C3)c3ccccc3n2)o1` (configuration not stated) reads 25.1 µM [falling, single point].
Turning to `Cc1ccc(-c2cc(C(=O)NC3CCCCC3)no2)cc1`, under setting [1], the half-maximal activity concentration (AC50) was 0.447 µM [falling, full curve, poor fit].
As for `CCCc1noc2c1C(c1ccoc1)C(C#N)=C(N)N2` (configuration not stated), the concentration at half-maximal activity (AC50) is, setting by setting: under setting [1], 6.31 µM [falling, single point]; under setting [2], 35.5 µM [falling, partial curve, poor fit].
Turning to `CCOc1ccc2oc(C(=O)N(C)CC(=O)Nc3ccc(OCC)c(OCC)c3)c(C)c2c1`, the half-maximal activity concentration (AC50) under setting [1] was 1.03 µM [rising, full curve, poor fit].
Still for that read-out and setting: the result for `C[C@@H]1NS(=O)(=O)[C@H]2C[C@@H]3C=C[C@]2(O3)[C@H]1OC(=O)c1ccccc1Br` reads 0.164 µM [falling, full curve, poor fit]; that for `O=C(O)CC1(CC(=O)Nc2ccc3c(c2)OCCCO3)CCCCC1`, 22.4 µM [falling, single point]; that for `CN(C)C(=O)CSc1nnc(-c2ccncc2)n1Cc1ccco1`, 0.501 µM [rising, full curve, poor fit].
In the case of `O=C(O)c1ccccc1SC1CC(=O)N(c2ccc3c(c2)OCO3)C1=O` (configuration not stated), the AC50 under setting [1] is 35.5 µM [falling, single point].
Turning to `O=[N+]([O-])c1c(NCCCO)cc(Sc2nc3ccccc3s2)c2nonc12`, the AC50 under setting [1] is 6.31 µM [rising, single point].
`N#CC1C=Cc2ccccc2N1C(=O)c1ccccc1` (configuration not stated): the AC50 under setting [1] is 5.62 µM [falling, single point].
Turning to `COc1ccccc1OCc1ccc(C(=O)NCc2ccco2)o1`, the concentration at half-maximal activity (AC50) under setting [1] was 16.4 µM [falling, partial curve, poor fit].
Still for that read-out and setting: the result for `Clc1cccc(Cl)c1C1Nc2cccc3cccc(c23)N1` reads 5.62 µM [falling, single point]; that for `Cc1cccc(-n2nnc(C(=O)NCc3ccco3)c2N)c1`, 35.5 µM [falling, single point].
Still for that read-out and setting: to `CCOc1ccc(C2C(C(C)=O)=C(O)C(=O)N2CCc2c[nH]c3ccccc23)cc1` (configuration not stated) belongs 28.2 µM [falling, single point].
Same read-out and setting: the result for `COc1cc(OC)cc(C(=O)Nc2cccc(C(C)=O)c2)c1` reads 2.91 µM [falling, partial curve, poor fit]; that for `O=C(C#Cc1ccccc1)Nc1ccc(F)cc1`, 12.6 µM [falling, partial curve].
On to `CCOC(=O)c1[nH]cnc1C(=O)N1CCC(C)CC1`, for which the AC50 under setting [1] is 25.9 µM [rising, single point].
Still for that read-out and setting: to `COc1ccc(N(CC(=O)N2CCN(C)CC2)S(C)(=O)=O)cc1OC` belongs 23.1 µM [rising, partial curve, poor fit].
As for `C=CC[C@@H](Cc1ccc(F)cc1)C(=O)OC[C@@H]1CCCN1C(=O)[C@@H](CC=C)CC(=O)N[C@H](CO)Cc1ccccc1`, under setting [1], the half-maximal activity concentration (AC50) was 29.1 µM [falling, single point].
Same read-out and setting: the result for `O=C(CN1CCc2ccccc21)NCc1ccccc1Cl` reads 16.4 µM [falling, partial curve].
Same read-out and setting: to `O=C(c1cc(-c2ccccc2Cl)nc2ccccc12)N1CCOCC1` belongs 10 µM [falling, partial curve, poor fit]; to `CN(Cc1ccccc1)S(=O)(=O)c1cccs1`, 0.82 µM [falling, full curve, poor fit].
Still for that read-out and setting: to `Cc1cc(C)cc(-n2ncc3c2CCCC3NC(=O)c2cc(C)n(C)n2)c1` (configuration not stated) belongs 35.5 µM [falling, partial curve, poor fit]; to `COC(=O)c1cc2n(n1)CCN(Cc1ccccc1Cl)C2=O`, 25.1 µM [falling, single point]; to `COc1cc2cnc(-c3ccsc3)cc2cc1OC`, 0.82 µM [rising, full curve, poor fit].
Consider `O=c1[nH]c2cc([N+](=O)[O-])c(NCCO)c([N+](=O)[O-])c2[nH]1`, for which the AC50 under setting [1] was 35.5 µM [rising, single point].
Same read-out and setting: the result for `COc1ccc(-c2nnc3sc(-c4ccccc4OC)nn23)cc1` reads 6.31 µM [rising, partial curve, poor fit]; that for `C=CCn1cnnc1SCC(=O)N(C)CC1COc2ccccc2O1` (configuration not stated), 0.00411 µM [rising, full curve, poor fit].
For `CN(C)S(=O)(=O)N(CC(=O)Nc1ccc2ccccc2c1)c1ccccc1`, the half-maximal activity concentration (AC50) under setting [1] is 1.64 µM [falling, full curve].
`C=CCNC(=S)N/N=C/c1ccc(C)c([N+](=O)[O-])c1`: the AC50 under setting [1] was 29.1 µM [rising, single point].
In the case of `COc1ccc(OC)c(NC(=O)CSc2ncccc2C(=O)O)c1`, the AC50 under setting [1] was 0.82 µM [falling, full curve, poor fit].
On to `COc1ccccc1CNC(=O)/C=C/c1cc2c(cc1Br)OCO2`, for which the AC50 under setting [1] is 10 µM [falling, partial curve, poor fit].
Consider `C=CCc1cccc(/C=N/NC(=O)CNc2ccccc2OC)c1O`, for which, under setting [1], the AC50 is 35.5 µM [falling, single point].
Same read-out and setting: the result for `Cc1nc(N2CCN(Cc3nc4ccccc4[nH]3)CC2)c2oc3ccccc3c2n1` reads 25.1 µM [falling, single point].
The same measure, in the same setting: to `COCC(=O)Nc1ccc(F)cc1` belongs 15.8 µM [falling, single point]; to `COc1ccc(-c2csc(NC(=O)c3ccccc3OC)c2C(=O)O)cc1OC`, 2.24 µM [falling, full curve]; to `CN(C)CCCNc1c2ccccc2nc2ccccc12`, 14.1 µM [falling, partial curve, poor fit].
Still for that read-out and setting: the result for `CCOC(=O)C1(Cc2cccc(OC)c2)CCN(C/C=C/c2ccccc2)CC1` reads 3.16 µM [rising, partial curve, poor fit]; that for `Cc1ccc(CN(C)C(=O)CN2C(=O)NC3(CCCc4ccccc43)C2=O)c(C)c1` (configuration not stated), 0.103 µM [rising, full curve, poor fit]; that for `O=C(c1ccco1)n1nc(NCc2ccccc2)nc1NCc1ccccc1`, 29.1 µM [falling, single point].
Consider `CC(C)Cn1c2ccccc2c2cc(C(=O)O)ccc21`, for which the concentration at half-maximal activity (AC50) under setting [1] is 0.184 µM [falling, full curve, poor fit].
Same read-out and setting: to `COc1ccc(CC(C)Nc2ccccc2F)cc1` (configuration not stated) belongs 35.5 µM [rising, single point]; to `CCc1c(-c2ccccc2)nc2sc3c(c2c1N)CCCC3`, 35.5 µM [falling, single point].
For the compound `Oc1ccc(C2CNCc3sccc32)cc1O` (configuration not stated), the AC50 under setting [1] was 29.1 µM [falling, single point].
Still for that read-out and setting: the result for `O=C1C(Nc2cccc(O)c2)=C(N2CCCCC2)C(=O)c2ccccc21` reads 11.2 µM [falling, partial curve, poor fit]; that for `COc1cc2ccccc2cc1C(=O)Nc1ccc(C)cc1`, 35.5 µM [falling, single point].
On the same count and under the same terms, to `Cc1ccc(NC(=O)CN(c2ccc(Cl)cc2)S(=O)(=O)c2cc([N+](=O)[O-])ccc2Cl)c(C)c1` belongs 3.16 µM [falling, partial curve, poor fit]; to `CCCn1c(=O)[nH]c(=O)c2c1nc(-c1ccc(OC(F)F)cc1)n2CCN1CCOCC1`, 32.6 µM [rising, single point].
Take `COC(=O)c1sccc1N/C=C(\C#N)S(=O)(=O)C(C)(C)C`: under setting [1], the AC50 was 0.1 µM [rising, full curve, poor fit].
Consider `Cn1c2c(c(=O)c3ccccc31)CCC(C)(C)O2`, for which the concentration at half-maximal activity (AC50) under setting [1] was 14.6 µM [rising, partial curve, poor fit].
As for `CC(C)c1ccc(NC(=O)c2cc(S(=O)(=O)NCCc3ccccc3)ccc2F)cc1`, the AC50 under setting [1] was 2.51 µM [falling, full curve, poor fit].
On to `O=C(CCCn1c(=O)c2ccccc2n(CC(=O)NCc2ccco2)c1=O)NCc1ccco1`, for which, under setting [1], the concentration at half-maximal activity (AC50) is 2.59 µM [falling, single point].
The same measure, in the same setting: to `CCn1c(SCc2ccccc2)nnc1-c1cccs1` belongs 29.1 µM [rising, single point]; to `O=C1Cc2cc(S(=O)(=O)Nc3cccc(C(F)(F)F)c3)cc3c2N1CCC3`, 0.501 µM [falling, full curve, poor fit].
Take `COc1ccc(OC)c(NC(=O)c2cccnc2Sc2ccccc2)c1`: the AC50 under setting [1] is 16.4 µM [rising, partial curve, poor fit].
The same measure, in the same setting: to `Cc1cc(C(=O)Nc2cccc(C(=O)O)c2)oc1C` belongs 1.46 µM [falling, full curve]; to `COc1ccc(CCNC(=O)c2cc3c(cc2Cl)N2CCCCCC2=NS3(=O)=O)cc1`, 29.1 µM [falling, single point].
For `COc1cccc(/C=N/Nc2nccnc2Cl)c1O`, the AC50 under setting [1] is 22.4 µM [falling, partial curve, poor fit].
For the compound `COc1ccccc1Nc1nc(N)nc(CSc2nc(C)cc(C)n2)n1`, the AC50 is, setting by setting: under setting [1], 12.6 µM [rising, partial curve]; under setting [2], 10 µM [falling, partial curve, poor fit].
`CCOC(=O)C1=C(CC)Nc2ccccc2N=C1NC(=O)Cn1cnc2ccccc2c1=O`: under setting [1], the AC50 is 0.366 µM [rising, full curve, poor fit].
The same measure, in the same setting: to `COc1ccccc1NC(=O)C(=O)N/N=C(\C)CC(=O)Nc1ccc(OCc2ccccc2)cc1` belongs 2.51 µM [falling, full curve].
